Percent effect of library compounds

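Assay of Toxoplasma gondii numbers, read through their beta-galactosidase reporter with a colour substrate. Compounds at 50 µM. Higher reads as fewer parasites (inferred from which compounds were picked for retests). Size under these conditions: about 18,000 compounds, about 170 of them at 50% or above in at least one test.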

Results are given as percent effect.
The record does not define 0% and 100%; most values in the screen are far below 50% and negative numbers occur (in some assays of this library far below -100).
This is an unselected part of the compounds tested.

Compound | Percent Effect
O=C(CSC1=NCCN1)Nc1ccc(Cl)cc1 | -9.813%
N[C@H]1CCN(C(=O)CCc2cc(F)ccc2F)C1 | -5.14%
O[C@@H]1[C@H](O)CNC[C@@H]1O | 34.05%
CNC(=O)NCc1ccc(CS(=O)(=O)NC)cc1 | -5.386%
CCN1CCN(CC(C)CNc2ncccc2F)CC1 (stereo not given) | 15.78%
COCC1CCN(C(=O)c2c(C)nn(C)c2C)C1 (stereo not given) | 5.82%
NS(=O)(=O)c1cnc2ccsc2c1 | -13.5%
CC[C@H](O)CN(CCNC(C)=O)C(C)C | -7.197%
CC(C)C(C)(CO)NC(=O)CN(C)C1CC1 (stereo not given) | -7.826%
Cc1cc(CSc2ncccc2C(=O)NC2CC2)no1 | -1.755%
Cc1ccncc1S(N)(=O)=O | -9.07%
COC(=O)CNc1cc(F)ccc1-n1cccn1 | -15.99%
CC(C)(C)N1CCCN(C(=O)c2cc(Cl)c[nH]2)CC1 | 5.643%
O=C(NCCOc1ncccc1Cl)c1ccsc1 | 10.44%
NC(Cc1ccc(O)cc1)c1nc2ccccc2[nH]1 (stereo not given) | -3.875%
CCN(CC)CCCN1CCOC2(CCOCC2)C1 | 2.451%
NC(=O)C1(CNCc2cccc(F)c2)CCOCC1 | -0.9049%
CNC[C@@H]1CCC(=O)N1 | 5.226%
NCC1CN(Cc2c(Cl)cncc2Cl)CCO1 (stereo not given) | -5.724%
FC(F)OC1CCNCC1 | 14.2%
CCN(Cc1nc(-c2ccc(=O)[nH]c2)no1)C1CC1 | -6.422%
O=C(NCc1nnc2n1CCC2)c1sccc1C1CC1 | -4.706%
CC(C)(C#N)c1ccc(-c2cc(C(N)=O)ccn2)cc1 | -6.939%
CCN1CC(C(=O)Nc2cn(C)cc(Br)c2=O)CC1=O (stereo not given) | -5.103%
N#CCc1nccc2ccccc12 | 0.8008%
COC(=O)c1ccn2cncc2c1 | 6.122%
Cn1cc(NC(=O)CC2C=CCC2)cc(Br)c1=O (stereo not given) | -2.451%
NCCc1ccc(Br)o1 | -2.901%
Cc1noc(C2COCCN2Cc2cccnc2C)n1 (stereo not given) | -8.958%
CNc1nc(NC2CCS(=O)(=O)C2)ncc1Br (stereo not given) | 16.89%
CCOCCC(=O)N1CCN(C(C)c2ccsc2)CC1 (stereo not given) | 6.56%
CNC(=O)CCN1C[C@H](c2ccc(OC)cc2)[C@@H](N)C1 | -9.717%
CN(Cc1ncc[nH]1)c1cc(C2CC(N)C2)ncn1 (stereo not given) | -9.713%
CCC[C@H]1CN(c2noc(C)n2)C[C@@H]1N | 25.92%
CCCC1CN(C)CCC1=O (stereo not given) | -18.71%
CCCC(O)(C(N)=O)c1ccccc1 (stereo not given) | -14.8%
c1csc(C2CCCNC2)n1 (stereo not given) | -7.903%
CC(NS(=O)(=O)c1cccc(Br)c1)c1nc[nH]n1 (stereo not given) | 18.35%
Cc1cccc2[nH]c(CNC(=O)CNC(N)=O)nc12 | 1.218%
NC1CC(c2cc(NCC3(CO)CCC3)ncn2)C1 (stereo not given) | 6.61%
O=C1NCCCc2ccccc21 | -5.788%
COc1ccccc1CC(=O)N1CCCNCC1 | -0.3483%
CC1CCN(S(=O)(=O)N(C)CC(N)=O)CC1 | -7.396%
CN(CC(=O)N1CCC2(CCCCC2)CC1)S(C)(=O)=O | -1.877%
CC(=O)NCCCOC(=O)c1csc(C)n1 | -28.3%
CC(C)CS(=O)(=O)CCNC(=O)c1ccc(=O)n(C)c1 | -7.096%
CCS(=O)(=O)NCc1ccccc1F | -5%
O=S1(=O)NCCN1c1ccccc1 | -4.463%
COCCCNC(=O)CN1CCc2ccccc2C1 | -0.6586%
CC(C)C[C@H](N)C(=O)N1CCOC2(CCCC2)C1 | -7.109%
Cn1nc(-c2cc(F)cc(F)c2)cc1N | -2.615%
CCC(CO)NC(=O)Nc1nnc(-c2ccccn2)s1 (stereo not given) | -13.68%
Cc1cc(NC(=O)CCN(C)C(C)CO)no1 (stereo not given) | 10.87%
CC(C)Oc1ccc(S(=O)(=O)N(C)C(C)CN)cc1 (stereo not given) | 1.839%
CCc1cc(C(=O)NC(CC)[C@H]2C[C@H](O)C2)cc(=O)[nH]1 (stereo not given in full) | 12.51%
CCCNCCNC(=O)C(C)c1ccc(OC)cc1 (stereo not given) | -1.498%
COc1ccc(-c2nnn(CCO)n2)cc1OC | 5.384%
COCc1cc(C)nc(SCC#N)c1C#N | -7.546%
CN(CCO)CCNc1cc([C@H]2C[C@H](N)C2)ncn1 | 18.13%
Nc1nc(N)nc(CN2CCCC2c2cccs2)n1 (stereo not given) | 61.8%

7 of the entries, repeated:

Compound,Percent Effect
COC(=O)CNc1cc(F)ccc1-n1cccn1,-15.99%
CCN1CC(C(=O)Nc2cn(C)cc(Br)c2=O)CC1=O (stereo not given),-5.103%
CC(C)C[C@H](N)C(=O)N1CCOC2(CCCC2)C1,-7.109%
CNC[C@@H]1CCC(=O)N1,5.226%
CCN(Cc1nc(-c2ccc(=O)[nH]c2)no1)C1CC1,-6.422%
O=C(NCc1nnc2n1CCC2)c1sccc1C1CC1,-4.706%
COCc1cc(C)nc(SCC#N)c1C#N,-7.546%

Source: ChEMBL document CHEMBL3988442, “University of Dundee, Small-Polar-MMV Screening Library” (2021).